Laboratory results taken from article PMC12810954, “Targeted computational design of an interleukin-7 superkine with enhanced folding efficiency and immunotherapeutic efficacy” (eLife, 2026).
No constants are given. Whether binding was seen depends on the method and setting. Some results given as binding are weak or reduced against the parent protein; the word gives no strength.

Molecular target: T1, wild type IL-7, yeast-displayed (human) (UniProt P13232)
T1 sequence: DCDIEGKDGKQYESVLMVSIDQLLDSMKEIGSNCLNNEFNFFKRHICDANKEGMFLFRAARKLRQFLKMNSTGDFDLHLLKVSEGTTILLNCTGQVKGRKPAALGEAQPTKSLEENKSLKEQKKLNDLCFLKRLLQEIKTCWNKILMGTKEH
Assay: flow cytometry on cells; yeast display: induced yeast in 1X PBS incubated with 50 nM His-tagged IL7Rα for 30 min at 4°C; display read by anti-HA, bound receptor by anti-His antibody; only the binder purified

binding: binds
B1: recombinant murine IL-7 receptor alpha (receptor, UniProt P16872 21-239)
chain: ESGNAQDGDLEDADADDHSFWCHSQLEVDGSQHLLTCAFNDSDINTANLEFQICGALLRVKCLTLNKLQDIYFIKTSEFLLIGSSNICVKLGQKNLTCKNMAINTIVKAEAPSDLKVVYRKEANDFLVTFNAPHLKKKYLKKVKHDVAYRPARGESNWTHVSLFHTRTTIPQRKLRPKAMYEIKVRSIPHNDYFKGFWSEWSPSSTFETPEPKNQGGWD
